# Source: PubChem BioAssay AID463205 (Broad Institute, 2010)
# Out of some 2,400 compounds screened, about 20 (0.8%) were called active.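 How the source made its calls: active means AC50 no more than ten times the highest tested concentration, or full inhibition at every dose giving a flat fit (cut at about 30 µM in these data); inconclusive means flat fit with activity between 30% and 70%, or poor-quality invalid fit; inactive means AC50 more than ten times the top tested dose.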 The list shows a part of the results.
# Experiment: luciferase-based ADP detection interference – biochemical, luminescence, cell-free, homogeneous, artefact control for GSK-3a inhibitor project, dose response (AID 463205);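 further: kinase-free counter-screen against the ADP-Glo detection reagents only; potency is for inhibitors that reduce the luminescence signal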
# Conditions: Cell-free ADP-Glo detection reagents, 5 uM ADP
row,Structure (SMILES),AC50
1,Cc1ccc(N(CC(O)CN2CCCC2)S(=O)(=O)c2ccccc2)cc1 (configuration not stated),inactive: > 30 µM
2,CCOC(=O)c1cnn(C)c1NC(=O)c1ccc(Cl)cc1Cl,inactive: > 30 µM
3,N#Cc1c(N2CCCCC2)nc(N)c2c(N)nc(SCC(=O)O)cc12,inactive: > 30 µM
4,Cc1ccc(N(CC(O)CN2CCCCC2)S(=O)(=O)c2ccccc2)cc1 (configuration not stated),inactive: > 30 µM
5,N#Cc1sc2nc3c(c(-c4ccco4)c2c1N)CCCC3,inactive: > 30 µM
6,CNC(=O)c1ccsc1NC(=O)C1CCCN1S(=O)(=O)c1cccs1 (configuration not stated),inactive: > 30 µM
7,O=C1NC(=Nc2ccccc2)S/C1=C/c1cccs1,inactive: > 30 µM
8,Nc1nc(Nc2ccc(Cl)cc2)n[nH]1,inactive: > 30 µM
9,Cc1c(CCC(=O)O)c(=O)oc2cc(O)ccc12,inactive: > 30 µM
10,Cc1ccc(/C=C2\C(=O)Nc3ccccc32)o1,inactive: > 30 µM
11,O=C(N/N=C/c1cccnc1)c1cc2c(ccc3ccccc32)o1,inactive: > 30 µM
12,O=C(CSc1nnc(-c2ccc(O)cc2)o1)Nc1ccccc1Br,inactive: > 30 µM
13,CCOc1ccc(-c2ncncc2-c2ccc(OC)c(OC)c2)c(O)c1,inactive: > 30 µM
14,CCn1c(C)nc2cc(-c3nc4n(n3)Cc3ccccc3-4)ccc21,active: 24.3 µM
15,CCCCCCCCOC(=O)C1=C(C)Nc2nnnn2C1c1cccs1 (configuration not stated),inactive: > 30 µM
16,O=c1cc[nH]c2ccc(OC(F)(F)F)cc12,inactive: > 30 µM
17,COCCCNC(=O)C(=O)NC1CCCCCC1,inactive: > 30 µM
18,Fc1cccc(Nc2ncnc3sccc23)c1,inactive: > 30 µM
19,Cc1ccc(S(=O)(=O)N2CCN(CC(=O)N/N=C\c3ccccn3)CC2)cc1,inactive: > 30 µM
20,Clc1ccc(-c2noc(COc3ccccc3)n2)cc1,inactive: > 30 µM
21,CC(C)OC(=O)CSc1nc(N)c(C#N)c(-c2ccco2)c1C#N,inactive: > 30 µM
22,COCCOC(=O)C1=C(C)Nc2ncnn2C1c1ccco1 (configuration not stated),inactive: > 30 µM
23,O=C(NC(=S)NCC1COc2ccccc2O1)c1ccccc1 (configuration not stated),inactive: > 30 µM
24,CCOC(=O)c1cc(C)[nH]c1C,inactive: > 30 µM

row,Structure (SMILES),AC50
1,Cc1ccc2c(c1)Oc1ccc(NC(=O)CCl)cc1C(=O)N2,inactive: > 30 µM
2,O=C(Nc1nnc(-c2ccco2)s1)C1CCCCC1,inactive: > 30 µM
3,S=C(NCCC1=CCCCC1)Nc1ccccc1,inactive: > 30 µM
4,CCOC(=O)c1nnn(-c2nonc2N)c1CN1CCCCCC1,inactive: > 30 µM
5,Cc1cccc(OCC(=O)N2CCN(c3nnc(-c4ccccc4)c4ccccc34)CC2)c1,inactive: > 30 µM
6,CCN(CC)Cc1c(O)ccc2c([N+](=O)[O-])c(C)n(-c3ccc(OC)cc3)c12,inactive: > 30 µM
7,COc1ccc(-c2cc(C(=O)N3CCN(c4ccccc4OC)CC3)no2)cc1OC,inactive: > 30 µM
8,O=S(=O)(c1cccs1)N1CCN(c2ccnc3cc(Cl)ccc23)CC1,inactive: > 30 µM
9,CC(=O)Nc1ccc(C(=O)OCC(=O)Nc2c(C)n(C)n(-c3ccccc3)c2=O)cc1,inactive: > 30 µM
10,CCOc1cc(C(c2c(C)[nH][nH]c2=O)c2c(C)[nH][nH]c2=O)ccc1O,inactive: > 30 µM
11,Cc1ccc(-c2cc(-c3n[nH]c(=S)o3)c3ccccc3n2)cc1,inactive: > 30 µM
12,CC(=O)Oc1ccc2ccc(=O)oc2c1,inactive: > 30 µM
13,COc1ccc(COC(=O)C2=C(C)NC(=O)NC2c2ccc(O)cc2)cc1 (configuration not stated),inactive: > 30 µM
14,O=C(NCCCCCCNC(=O)OCCO)OCCO,inactive: > 30 µM
15,CC(=O)c1ccc(N=Nc2c(C)[nH][nH]c2=O)cc1,inactive: > 30 µM
16,CCC(C)[C@H](NC(=O)NCc1ccc(Cl)cc1)C(=O)OC (some centres not stated),inactive: > 30 µM
17,COc1ccc(Nc2nc(N)c([N+](=O)[O-])c(N3CCN(C)CC3)n2)cc1,inactive: > 30 µM
18,COCC(=O)Nc1ccc([N+](=O)[O-])cc1OC,inactive: > 30 µM
19,Cc1ccc(C(=O)N/N=c2\oc3ccccc3cc2C(N)=O)cc1,inactive: > 30 µM
20,COc1ccccc1N=c1oc2cc(O)ccc2cc1C(=O)NCC1CCCO1 (configuration not stated),inactive: > 30 µM
21,CC(C)(C)OC(=O)N1CCC(NC(=O)c2[nH]cnc2C(=O)Nc2ccc(Cl)cc2)CC1,inactive: > 30 µM
22,O=C(Nc1sc2c(c1C(=O)O)CCC2)c1cccs1,inactive: > 30 µM
23,Cc1cc(NC(=O)c2cccc(S(=O)(=O)N3CC(c4ccccc4)CC3=O)c2)no1 (configuration not stated),inactive: > 30 µM

# A section taken from the entries so far:
row,Structure (SMILES),AC50
9,CC(=O)Nc1ccc(C(=O)OCC(=O)Nc2c(C)n(C)n(-c3ccccc3)c2=O)cc1,inactive: > 30 µM
10,CCOc1cc(C(c2c(C)[nH][nH]c2=O)c2c(C)[nH][nH]c2=O)ccc1O,inactive: > 30 µM
